One substance from article PMC3926330 can be followed below.

Chains of the proteins cited; added tags and fusions are not shown.
UniProt P10275: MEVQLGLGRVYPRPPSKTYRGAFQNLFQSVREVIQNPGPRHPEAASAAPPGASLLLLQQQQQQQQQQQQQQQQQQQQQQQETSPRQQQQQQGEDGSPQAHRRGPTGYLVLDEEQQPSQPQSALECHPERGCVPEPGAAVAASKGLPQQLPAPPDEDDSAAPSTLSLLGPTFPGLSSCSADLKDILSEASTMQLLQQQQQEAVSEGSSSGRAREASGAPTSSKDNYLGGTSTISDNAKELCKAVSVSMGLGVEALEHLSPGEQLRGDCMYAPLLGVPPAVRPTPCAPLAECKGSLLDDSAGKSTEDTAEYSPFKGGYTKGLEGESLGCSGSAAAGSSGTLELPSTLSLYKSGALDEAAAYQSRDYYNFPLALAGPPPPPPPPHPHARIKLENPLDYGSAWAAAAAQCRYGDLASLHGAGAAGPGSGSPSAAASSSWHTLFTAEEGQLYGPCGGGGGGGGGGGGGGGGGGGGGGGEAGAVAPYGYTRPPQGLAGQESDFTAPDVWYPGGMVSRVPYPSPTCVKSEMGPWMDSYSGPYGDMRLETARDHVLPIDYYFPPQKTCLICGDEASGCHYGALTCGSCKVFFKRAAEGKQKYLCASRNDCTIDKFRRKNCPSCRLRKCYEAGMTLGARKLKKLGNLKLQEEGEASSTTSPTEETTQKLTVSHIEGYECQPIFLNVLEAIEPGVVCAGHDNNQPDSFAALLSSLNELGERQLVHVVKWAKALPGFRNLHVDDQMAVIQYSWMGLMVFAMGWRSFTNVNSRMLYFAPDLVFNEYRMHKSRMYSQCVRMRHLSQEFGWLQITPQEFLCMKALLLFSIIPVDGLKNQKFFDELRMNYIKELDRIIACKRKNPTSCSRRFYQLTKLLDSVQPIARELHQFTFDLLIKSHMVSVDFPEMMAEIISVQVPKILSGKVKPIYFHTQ

Results are given in words; binding and its absence hold for the method and conditions named. Binding seen in cells or lysates may run through a third protein. Some binding calls cover weakened binding; strength is not graded here.

Assay [1] has as its target T1, forkhead box A1 (FOXA1) (human (endogenous in MFE-296 and AN3CA)) (UniProt P55317).
T1 sequence: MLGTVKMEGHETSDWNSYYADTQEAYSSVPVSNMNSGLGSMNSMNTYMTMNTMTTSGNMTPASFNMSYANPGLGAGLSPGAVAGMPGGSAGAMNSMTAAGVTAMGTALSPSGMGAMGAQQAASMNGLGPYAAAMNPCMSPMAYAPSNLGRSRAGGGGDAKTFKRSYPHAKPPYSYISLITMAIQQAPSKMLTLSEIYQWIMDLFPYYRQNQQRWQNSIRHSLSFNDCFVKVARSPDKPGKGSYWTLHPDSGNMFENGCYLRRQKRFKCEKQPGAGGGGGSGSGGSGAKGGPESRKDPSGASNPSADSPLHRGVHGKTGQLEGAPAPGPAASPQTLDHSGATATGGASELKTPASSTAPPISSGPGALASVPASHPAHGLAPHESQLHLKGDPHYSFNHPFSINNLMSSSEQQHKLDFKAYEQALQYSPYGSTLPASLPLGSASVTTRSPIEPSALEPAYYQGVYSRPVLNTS
The experiment in a line: co-IP; AN3CA cells treated with vehicle (no DHT); IP with anti-FOXA1 from 500 ug lysate, 4°C overnight, Protein A + G Agarose, washed with RIPA; western blot for AR and FOXA1. For orientation: Immunoblotting shows a protein as a band on a membrane.

The target of assay [2] is T1, forkhead box A1 (FOXA1) (human (endogenous in MFE-296 and AN3CA)). The experiment in a line: co-IP; AN3CA cells treated with 10^-7 M DHT for 24 h; IP with anti-FOXA1 from 500 ug lysate, 4°C overnight, Protein A + G Agarose, washed with RIPA; western blot for AR and FOXA1.
For assay [3] the target is unchanged. In words: co-IP; nuclear lysates from MFE-296 cells; IP with rabbit anti-FOXA1 (Epitomics), 500 ug lysate, 4°C overnight, Protein A + G Agarose, washed with RIPA; western blot for AR and FOXA1; isotype IgG as control.

Take “androgen receptor (AR) (from UniProt P10275 1-920)”: the binding result in assay [1] is listed as “no binding (condition: AN3CA cells without DHT (vehicle))”; in assay [2], “binds”; in assay [3] it was “binds”.
